Measurements reported in PubChem BioAssay AID1259280 (Sanger Institute, 2017).
The whole screen tested 794 reagents; shown is a part drawn at random. In the full data, 12 (1.5%) got an active call. 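Calls cover knock-down without drug only; synergy scores stand apart, values above 0.15 being treated as synergy.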 No viability above 1 is reported: the scale is capped. Not all columns of the deposit are shown. Reagent sequences are not shown. The record does not give: the amount of reagent, the time to read-out.

- Purpose: 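Kinase knock-downs that kill colorectal cancer cells or add to anchor drugs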 (primary screen)
- Cells: human SNU407 colorectal cancer cells
- Reagent: siRNA pool against human genes
- Treatment: anchor drugs BYL719 at 1 µM, cetuximab at 5 µg/ml or trametinib at 10 nM, or DMSO vehicle alone; exposure time not given
- Detection: 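Viability per well scaled to a non-targeting pool and averaged over replicates, with a robust z-score from controls and a synergy score per anchor drug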
- Reading the numbers: viability z-score, no drug and viability vs control, no drug: higher = more cells survive the knock-down; synergy with trametinib: higher = stronger synergy of knock-down with drug
- Rule for the call: 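Essential calls require a no-drug robust viability z-score under -3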
- Calls: active = essential (knock-down alone kills cells); inactive = no change without drug

target gene | viability z-score, no drug | viability vs control, no drug (fraction of control) | synergy with trametinib | activity call
CDKN1B | -0.519 | 0.892 | -0.0432 | inactive
CDKL2 | -0.0283 | 0.929 | 0.104 | inactive
SGK2 | -0.805 | 0.87 | 0.105 | inactive
PHKA1 | 0.901 | 1 | -0.0568 | inactive
MERTK | 0.901 | 1 | -0.0046 | inactive
IKBKB | -1.45 | 0.82 | 0.0362 | inactive
PGK1 | 0.421 | 0.963 | -0.00536 | inactive

Part of the list above, set out differently.
{"target gene":"CDKN1B","viability z-score, no drug":-0.519,"viability vs control, no drug (fraction of control)":0.892,"synergy with trametinib":-0.0432,"activity call":"inactive"}
{"target gene":"CDKL2","viability z-score, no drug":-0.0283,"viability vs control, no drug (fraction of control)":0.929,"synergy with trametinib":0.104,"activity call":"inactive"}
{"target gene":"SGK2","viability z-score, no drug":-0.805,"viability vs control, no drug (fraction of control)":0.87,"synergy with trametinib":0.105,"activity call":"inactive"}

The results go on.
target gene | viability z-score, no drug | viability vs control, no drug (fraction of control) | synergy with trametinib | activity call
PHKG1 | 0.385 | 0.961 | -0.0397 | inactive
DAPK3 | -1.31 | 0.831 | -0.142 | inactive
LMTK3 | -0.557 | 0.889 | -0.0489 | inactive
CAMK1G | 0.901 | 1 | 0.0195 | inactive
MPP2 | 0.901 | 1 | 0.0975 | inactive
RSKR | 0.484 | 0.968 | -0.0041 | inactive
PIK3CG | -0.455 | 0.896 | -0.0264 | inactive
WEE1 | -1.04 | 0.851 | 0.0945 | inactive
PBK | 0.78 | 0.991 | -0.00726 | inactive
PIK3R4 | 0.428 | 0.964 | 0.0055 | inactive
GALK2 | -1.37 | 0.827 | -0.0403 | inactive
BCR | 0.0956 | 0.938 | 0.064 | inactive
MAGI3 | -0.436 | 0.898 | -0.0667 | inactive
